Data set [1] has as its system source genes (mRNA) in tumor and normal tissue. Put plainly: Expression profiling of genes encoding the peptides (RNAseq). To be noted: for Gene Expression in tumor samples: highly over-expressed (++): tumor entities in which the source gene is highly over-expressed vs panel of normal tissues (Table 9a); for Gene Expression in tumor samples: over-expressed (+): tumor entities in which the source gene is over-expressed vs panel of normal tissues (Table 9a). Also noted: species or system human.

The subject of data set [2] is HLA molecules from shock-frozen tissue samples. Put plainly: Identification and quantitation of tumor associated peptides presented on the cell surface (HLA immunoprecipitation, LC-MS). Also noted: species or system human. To be noted: cancer entities on which the peptide was detected by LC-MS of HLA ligands.

For some of these results: Expression values are those of the mRNA of the gene that encodes the peptide; a gene is named only where it was looked up.

On to “105: peptide found in CBX2 (gene looked up) (QVLDLQSVK; listed as Homo sapiens) [compound 105]”, for which, in data set [1], the “Gene Expression in tumor samples: highly over-expressed (++)” value is reported as “AML, BRCA, NSCLCother, NSCLCsquam, SCLC” and the “Gene Expression in tumor samples: over-expressed (+)” value (“Gene Expression … over-expressed (+)” below) is on record as “CRC, GBC, GBM, HCC, HNSCC, MEL, NSCLCadeno, OC, OSCAR, UBC, UEC”. In data set [2], the “Peptide Presentation on cancer entities” value was “CRC”.

As to “107: peptide found in PLA2G2D (gene looked up) (ILNLNKMVK; listed as Homo sapiens) [compound 107]”, in data set [1], the “Gene Expression in tumor samples: highly over-expressed (++)” value is listed as “NHL” and the “Gene Expression … over-expressed (+)” value is “MEL, NSCLCother”. In addition, the “Peptide Presentation on cancer entities” value in data set [2] is “NHL”.

Regarding “108: peptide found in PLA2G2D (gene looked up) (KMPILSYWPY; listed as Homo sapiens) [compound 108]”, in data set [1], the “Gene Expression in tumor samples: highly over-expressed (++)” value is “NHL” and the “Gene Expression … over-expressed (+)” value is “MEL, NSCLCother”. The “Peptide Presentation on cancer entities” value in data set [2] is listed as “CRC”.

Take “111: peptide found in GPR143 (gene looked up) (ATSPPASVR; listed as Homo sapiens) [compound 111]”: in data set [1], the “Gene Expression in tumor samples: highly over-expressed (++)” value is on record as “MEL”. For the same substance, the “Peptide Presentation on cancer entities” value in data set [2] is given as “HNSCC”.

“113: peptide found in FLT3 (gene looked up) (VSIRNTLLY; listed as Homo sapiens) [compound 113]”: the “Gene Expression in tumor samples: highly over-expressed (++)” value in data set [1] is listed as “AML”. In addition, the “Peptide Presentation on cancer entities” value in data set [2] is given as “HCC”.

As to “115: peptide found in NMUR2 (gene looked up) (AILHPFRAK; listed as Homo sapiens) [compound 115]”, the “Gene Expression … over-expressed (+)” value in data set [1] is on record as “PACA, UEC”. Besides, the “Peptide Presentation on cancer entities” value in data set [2] is “UEC”.

For the substance “119: peptide found in DNTT (gene looked up) (RMGFRTLSK; listed as Homo sapiens) [compound 119]”, the “Gene Expression in tumor samples: highly over-expressed (++)” value in data set [1] is “AML”. The “Peptide Presentation on cancer entities” value in data set [2] is given as “AML”.

As for “120: peptide found in DNTT (gene looked up) (TRMQKAGFLYY; listed as Homo sapiens) [compound 120]”, the “Gene Expression in tumor samples: highly over-expressed (++)” value in data set [1] is reported as “AML”. For the same substance, the “Peptide Presentation on cancer entities” value in data set [2] was “NSCLCsquam”.

On to “122: peptide found in F5 (gene looked up) (LIGPLLICK; listed as Homo sapiens) [compound 122]”, for which, in data set [1], the “Gene Expression in tumor samples: highly over-expressed (++)” value is given as “HCC” and the “Gene Expression … over-expressed (+)” value is on record as “CCC”. Also, in data set [2], the “Peptide Presentation on cancer entities” value is “CCC, HCC, NSCLCadeno, RCC, UEC”.

Take “123: peptide found in PTPRZ1 (gene looked up) (SLQGLTISY; listed as Homo sapiens) [compound 123]”: in data set [1], the “Gene Expression in tumor samples: highly over-expressed (++)” value is reported as “GBM”. Further, the “Peptide Presentation on cancer entities” value in data set [2] is given as “GBM”.

Take “124: peptide found in PTPRZ1 (gene looked up) (VVYDTMIEK; listed as Homo sapiens) [compound 124]”: the “Gene Expression in tumor samples: highly over-expressed (++)” value in data set [1] is “GBM”. In data set [2], the “Peptide Presentation on cancer entities” value was “GBM”.

For the substance “125: peptide found in PTPRZ1 (gene looked up) (VVYDTMIEKF; listed as Homo sapiens) [compound 125]”, the “Gene Expression in tumor samples: highly over-expressed (++)” value in data set [1] was “GBM”. In data set [2], the “Peptide Presentation on cancer entities” value was “HNSCC”.

On to “129: peptide found in OXTR (gene looked up) (ALARVSSVKL; listed as Homo sapiens) [compound 129]”, for which, in data set [1], the “Gene Expression in tumor samples: highly over-expressed (++)” value is listed as “CCC” and the “Gene Expression … over-expressed (+)” value was “GBM, OC”. For the same substance, the “Peptide Presentation on cancer entities” value in data set [2] is on record as “CRC”.

In the case of “134: peptide found in FERMT1 (gene looked up) (SLLKPSGDYFK; listed as Homo sapiens) [compound 134]”, in data set [1], the “Gene Expression in tumor samples: highly over-expressed (++)” value was “CRC” and the “Gene Expression … over-expressed (+)” value is “GC, HNSCC, NSCLCsquam, OSCAR, UBC”. In data set [2], the “Peptide Presentation on cancer entities” value was “CRC”.

In the case of “138: peptide found in CTLA4 (gene looked up) (VSLSKMLKK; listed as Homo sapiens) [compound 138]”, in data set [1], the “Gene Expression in tumor samples: highly over-expressed (++)” value is on record as “CLL” and the “Gene Expression … over-expressed (+)” value is “NHL”. Also, the “Peptide Presentation on cancer entities” value in data set [2] was “NHL”.

For “145: peptide found in FLT3 (gene looked up) (SLFEGIYTIK; listed as Homo sapiens) [compound 145]”, in data set [1], the “Gene Expression in tumor samples: highly over-expressed (++)” value is recorded as “AML”. Also, the “Peptide Presentation on cancer entities” value in data set [2] is reported as “AML”.

For “152: peptide found in SLC5A4 (gene looked up) (KIICGVHYLY; listed as Homo sapiens) [compound 152]”, the “Gene Expression in tumor samples: highly over-expressed (++)” value in data set [1] was “MEL”. Also, the “Peptide Presentation on cancer entities” value in data set [2] was “CRC”.

On to “155: peptide found in APOB (gene looked up) (ALSHAVNNY; listed as Homo sapiens) [compound 155]”, for which the “Gene Expression in tumor samples: highly over-expressed (++)” value in data set [1] was “HCC”. In addition, in data set [2], the “Peptide Presentation on cancer entities” value is recorded as “SCLC”.

Regarding “157: peptide found in HSF2BP (gene looked up) (SLPLQRILAMSK; listed as Homo sapiens) [compound 157]”, in data set [1], the “Gene Expression in tumor samples: highly over-expressed (++)” value is “GBC” and the “Gene Expression … over-expressed (+)” value was “BRCA, CCC, HNSCC, MEL, NSCLCadeno, NSCLCother, NSCLCsquam, OC, OSCAR, PACA, UBC”. In data set [2], the “Peptide Presentation on cancer entities” value is “NSCLCadeno”.

As to “163: peptide found in GPR143 (gene looked up) (MLYYPSVSR; listed as Homo sapiens) [compound 163]”, in data set [1], the “Gene Expression in tumor samples: highly over-expressed (++)” value was “MEL”. Further, the “Peptide Presentation on cancer entities” value in data set [2] is “MEL”.

Consider “166: peptide found in ADAMTS12 (gene looked up) (KVIAPGVIY; listed as Homo sapiens) [compound 166]”, for which, in data set [1], the “Gene Expression in tumor samples: highly over-expressed (++)” value is listed as “CCC” and the “Gene Expression … over-expressed (+)” value was “BRCA, CRC, GBC, GC, HNSCC, NSCLCadeno, NSCLCother, NSCLCsquam, OSCAR, PACA, UBC”. Moreover, the “Peptide Presentation on cancer entities” value in data set [2] was “CCC”.

“167: peptide found in PDE11A (gene looked up) (MLKQARRPLFR; listed as Homo sapiens) [compound 167]”: the “Gene Expression … over-expressed (+)” value in data set [1] was “BRCA, HCC, HNSCC, PRCA, SCLC, UEC”. Also, the “Peptide Presentation on cancer entities” value in data set [2] is “NSCLCadeno”.

“171: peptide found in ABCB11 (gene looked up) (ATIGLSVSK; listed as Homo sapiens) [compound 171]”: the “Gene Expression in tumor samples: highly over-expressed (++)” value in data set [1] is “HCC”. Moreover, the “Peptide Presentation on cancer entities” value in data set [2] is given as “AML, HCC”.

“173: peptide found in FERMT1 (gene looked up) (VSYNRLIK; listed as Homo sapiens) [compound 173]”: in data set [1], the “Gene Expression in tumor samples: highly over-expressed (++)” value was “CRC” and the “Gene Expression … over-expressed (+)” value is “GC, HNSCC, OSCAR, UBC”. Also, the “Peptide Presentation on cancer entities” value in data set [2] was “GBC, HCC, HNSCC, MEL, PRCA, RCC, UEC”.

Turning to “178: peptide found in LPAR3 (gene looked up) (RIYVYVKRK; listed as Homo sapiens) [compound 178]”, the “Gene Expression … over-expressed (+)” value in data set [1] was “HNSCC, OC, OSCAR, PRCA”. The “Peptide Presentation on cancer entities” value in data set [2] is “AML, HNSCC, OSCAR, UBC, UEC”.

As for “182: peptide found in MET (gene looked up) (QICLPAIYK; listed as Homo sapiens) [compound 182]”, in data set [1], the “Gene Expression … over-expressed (+)” value is listed as “CCC, GBC, NSCLCadeno, RCC”. Further, the “Peptide Presentation on cancer entities” value in data set [2] is recorded as “CRC, GBC, NSCLCadeno, RCC”.

As to “184: peptide found in MPL (gene looked up) (KVLEPPLGAR; listed as Homo sapiens) [compound 184]”, in data set [1], the “Gene Expression … over-expressed (+)” value was “AML”. Moreover, the “Peptide Presentation on cancer entities” value in data set [2] is on record as “AML, CLL”.

Consider “185: peptide found in SLC6A2 (gene looked up) (SIINFKPLTY; listed as Homo sapiens) [compound 185]”, for which the “Gene Expression … over-expressed (+)” value in data set [1] is given as “HCC”. Besides, the “Peptide Presentation on cancer entities” value in data set [2] was “HNSCC”.

“186: peptide found in LPAR4 (gene looked up) (CTLPFKIFY; listed as Homo sapiens) [compound 186]”: the “Gene Expression … over-expressed (+)” value in data set [1] is given as “AML, GBM”. For the same substance, the “Peptide Presentation on cancer entities” value in data set [2] is reported as “HNSCC, NSCLCadeno, PACA, UEC”.

In the case of “189: peptide found in FOXP3 (gene looked up) (KVFEEPEDFLK; listed as Homo sapiens) [compound 189]”, the “Gene Expression … over-expressed (+)” value in data set [1] was “NHL”. Besides, in data set [2], the “Peptide Presentation on cancer entities” value is “BRCA, CCC, CRC, GBC, GC, HCC, HNSCC, MEL, NHL, NSCLCadeno, NSCLCsquam, OSCAR, PACA, PRCA, RCC, SCLC, UBC, UEC”.

Consider “196: peptide found in MET (gene looked up) (AISSTVLGK; listed as Homo sapiens) [compound 196]”, for which the “Gene Expression … over-expressed (+)” value in data set [1] is “CCC, GBC, RCC”. The “Peptide Presentation on cancer entities” value in data set [2] is “GBC, PACA, UEC”.

On to “201: peptide found in SRMS (gene looked up) (KVADFGLARLLK; listed as Homo sapiens) [compound 201]”, for which, in data set [1], the “Gene Expression … over-expressed (+)” value is recorded as “BRCA, CLL, OC, PRCA”. The “Peptide Presentation on cancer entities” value in data set [2] is given as “BRCA, CRC, NHL”.

In the case of “205: peptide found in AR (gene looked up) (RVYPRPPSK; listed as Homo sapiens) [compound 205]”, the “Gene Expression … over-expressed (+)” value in data set [1] was “BRCA, HCC, PRCA”. Besides, the “Peptide Presentation on cancer entities” value in data set [2] is reported as “CCC, HCC, UEC”.

The record behind these values is patent US11872270B2, “A*03 restricted peptides for use in immunotherapy against cancers and related methods” (Immatics Biotechnologies GmbH, priority 2018, dated 2024).
